Results taken from patent US5736559A, “Biphenyl derivatives, pharmaceutical compositions containing these compounds and processes for preparing them” (Karl Thomae GmbH, priority 1991, dated 1998).
At least one compound was matched to its structure with a doubt left.

Target: Fibrinogen binding to human thrombocytes
Assay: Fibrinogen binding to human thrombocytes
Details: 125I fibrinogen; gel-filtered human platelets; ADP; 20 minutes at ambient temperature; read-out: Fibrinogen binding test IC50
Protocol: Fibrinogen binding to human thrombocytes The blood obtained by puncturing an antecubital vein is anticoagulated with trisodium citrate (final concentration: 13 mM) and centrifuged for 10 minutes at 170 xg. The supernatant platelet-rich plasma is poured onto a Sepharose 2B column (Pharmacia) and eluted with a solution of 90 mM common salt, 14 mM trisodium citrate, 5 mM glucose and 50 mM Tris(hydroxymethyl)aminomethane, adjusted to pH 7.4. The gel-filtered platelets (GFP) appearing before the plasma proteins are used for the binding experiments. 50 μl of a 60 mM calcium chloride solution, 50 μl of a 0.6 mM adenosine diphosphate solution, 100 μl of substance solution or solvent and 50 μl of fibrinogen solution (containing 3 μg of ^125 I fibrinogen) are added to 750 μl of GFP and incubated for 20 minutes at ambient temperature. The non-specific binding is determined in the presence of 3 mg/ml of cold fibrinogen. 900 μl of the incubated material are carefully pipetted onto 250 μl of silicon oil (AP 38: AR 20, 1:2 v/v, Wacker Chemie) in Eppendorf tubes and centrifuged for 2 minutes at 10,000 xg. The aqueous supernatant and some of the oil are drawn off, the tips of the tubes are cut off together with the platelet pellet and the quantity of bound fibrinogen is determined in a gamma counter. […]

For `CCOC(=O)CC1CCN(C(=O)c2ccc(-c3ccc(C(=N)NC(=O)OCC)cc3)cc2)CC1` [8(7), 4-(N-ethoxycarbonylamidino)-4'-[(4-ethoxycarbonyl-methylpiperidino)carbonyl]biphenyl], the IC50 was 59 µM.
